# Measured values as given in the supplement of paper PMC8728848.
# The other results are listed elsewhere or left out.
# B1: GS7807I-bvu-563-22-563 (Bacteroides vulgatus) (protein)
# chain: IFSSCTDDFEKLNTSNIQVDPADLPFAAQCTEPMTYCYPPQQNMFQFWTNLTIDLYGGYFMTPNGNFTNGDMGENRGHSGGMYENYYLHIFNNTRRIIAQCDASGERGLSGVMRIVQAYGTLMTTDAYGPIPYSSILSGENEVYFEFDSQKDLYKAMLEDLSTAITDISAMGADEIAKLKSFDCWCNGDKDLWVKIANTMKLRMALRLSKRETEAGNAGMNLKAIATEAAQNTLATVNKDILIDKSLENEMWLMFNWGDCGFNANLVTIMSGTKDPRQPLYMTLNTGDIKNEAGTTTVAANSQYLGIRFASGLPAKPNSWGNFSGWIQGNNGSSYSMPLPIMKAAEAYFLLAEAKLRWDIGSESVKNLYENGIRVSMTNELAYRGAYAGIKEYPEGAVDAYINGTSTQIDYTDPIKAELSTPAVNKLSVKWDESASNEEKLERIITQKWLALFPLSTEGWAEQRRTGYPRFFPAFVNESNGAVNTEEGVRRVIYSSQAYDANAKGVEGGIKLLDEENSSKFGISGDKGGTHLWWDNADKGNF
# Legend:
# Experiment in all cases: glycan array binding signal (z-score within array); higher = stronger binding
# Settings in all cases: glycan notation: IUPAC condensed, linker removed
# [1] = target: Fuc(a1-3)GlcNAc
# Method in brief: (§1)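 Negative Z-scores can be read as non-binding. The Z-score is calculated within each array and then averaged across arrays of one protein sequence at different concentrations or buffers and across linkers. Arrays, 3228 in all, were curated from the Consortium for Functional Glycomics database and kept only where the protein sequence was available.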
# [2] = target: Fuc(a1-3)[Gal(b1-4)]Glc6S
# Method in brief: as §1
# [3] = target: Fuc(a1-3)[Gal(b1-4)]GlcNAc
# Method in brief: as §1
# [4] = target: Fuc(a1-3)[Gal(b1-4)]GlcNAc(b1-2)Man
# Method in brief: as §1
# [5] = target: Fuc(a1-3)[Gal(b1-4)]GlcNAc(b1-2)Man(a1-3)[Fuc(a1-3)[Gal(b1-4)]GlcNAc(b1-2)Man(a1-6)]Man(b1-4)GlcNAc(b1-4)GlcNAc
# Method in brief: as §1
# [6] = target: Fuc(a1-3)[Gal(b1-4)]GlcNAc(b1-2)Man(a1-3)[Fuc(a1-3)[Gal(b1-4)]GlcNAc(b1-2)Man(a1-6)]Man(b1-4)GlcNAc(b1-4)[Fuc(a1-6)]GlcNAc
# Method in brief: as §1
# [7] = target: Fuc(a1-3)[Gal(b1-4)]GlcNAc(b1-3)Gal(b1-3)[Fuc(a1-4)]GlcNAc
# Method in brief: as §1
# [8] = target: Fuc(a1-3)[Gal(b1-4)]GlcNAc(b1-3)Gal(b1-4)[Fuc(a1-3)]GlcNAc
# Method in brief: as §1
# [9] = target: Fuc(a1-3)[Gal(b1-4)]GlcNAc(b1-3)Gal(b1-4)[Fuc(a1-3)]GlcNAc(b1-3)Gal(b1-4)[Fuc(a1-3)]GlcNAc
# Method in brief: as §1
# [10] = target: Fuc(a1-3)[Gal(b1-4)]GlcNAc(b1-3)GalNAc
# Method in brief: as §1
# [11] = target: Fuc(a1-3)[Gal(b1-4)]GlcNAc(b1-6)GalNAc
# Method in brief: as §1
# [12] = target: Fuc(a1-3)[Gal(b1-4)]GlcNAc(b1-6)[Gal(b1-3)GlcNAc(b1-3)]Gal(b1-4)Glc
# Method in brief: as §1
# [13] = target: Fuc(a1-3)[Gal(b1-4)]GlcNAc6S
# Method in brief: as §1
# [14] = target: Fuc(a1-3)[Gal3S(b1-4)]Glc
# Method in brief: as §1
# [15] = target: Fuc(a1-3)[Gal3S(b1-4)]GlcNAc
# Method in brief: as §1
# [16] = target: Fuc(a1-3)[Gal3S(b1-4)]GlcNAc6S
# Method in brief: as §1
# [17] = target: Fuc(a1-3)[GalNAc(b1-4)]GlcNAc
# Method in brief: as §1
# [18] = target: Fuc(a1-3)[GalNAc(b1-4)]GlcNAc6S
# Method in brief: as §1
# [19] = target: Fuc(a1-4)GlcNAc
# Method in brief: as §1
# [20] = target: Fuc(b1-3)GlcNAc
# Method in brief: as §1
# [21] = target: Gal(a1-2)Gal
# Method in brief: as §1
# [22] = target: Gal(a1-3)Gal
# Method in brief: as §1
# [23] = target: Gal(a1-3)Gal(b1-3)GlcNAc
# Method in brief: as §1
# [24] = target: Gal(a1-3)Gal(b1-3)GlcNAc(b1-2)Man
# Method in brief: as §1
# [25] = target: Gal(a1-3)Gal(b1-3)GlcNAc(b1-2)Man(a1-3)[Gal(a1-3)Gal(b1-3)GlcNAc(b1-2)Man(a1-6)]Man(b1-4)GlcNAc(b1-4)GlcNAc
# Method in brief: as §1
# [26] = target: Gal(a1-3)Gal(b1-3)GlcNAc(b1-3)GalNAc
# Method in brief: as §1
# [27] = target: Gal(a1-3)Gal(b1-3)GlcNAc(b1-6)GalNAc
# Method in brief: as §1
# [28] = target: Gal(a1-3)Gal(b1-3)[Fuc(a1-4)]GlcNAc(b1-2)Man(a1-3)[Gal(a1-3)Gal(b1-3)[Fuc(a1-4)]GlcNAc(b1-2)Man(a1-6)]Man(b1-4)GlcNAc(b1-4)GlcNAc
# Method in brief: as §1
# [29] = target: Gal(a1-3)Gal(b1-4)Glc
# Method in brief: as §1
# [30] = target: Gal(a1-3)Gal(b1-4)GlcNAc
# Method in brief: as §1
binder,measurement,setting,value
B1,glycan array binding signal (z-score),[1],-1.2
same,glycan array binding signal (z-score),[2],-0.366
same,glycan array binding signal (z-score),[3],-0.447
same,glycan array binding signal (z-score),[4],-0.489
same,glycan array binding signal (z-score),[5],-1.02
same,glycan array binding signal (z-score),[6],2.56
same,glycan array binding signal (z-score),[7],0.715
same,glycan array binding signal (z-score),[8],-0.381
same,glycan array binding signal (z-score),[9],-0.568
same,glycan array binding signal (z-score),[10],0.072
same,glycan array binding signal (z-score),[11],1.2
same,glycan array binding signal (z-score),[12],0.031
same,glycan array binding signal (z-score),[13],-1
same,glycan array binding signal (z-score),[14],-0.824
same,glycan array binding signal (z-score),[15],0.384
same,glycan array binding signal (z-score),[16],0.755
same,glycan array binding signal (z-score),[17],0.354
same,glycan array binding signal (z-score),[18],-0.615
same,glycan array binding signal (z-score),[19],-0.512
same,glycan array binding signal (z-score),[20],-0.592
same,glycan array binding signal (z-score),[21],-0.874
same,glycan array binding signal (z-score),[22],-0.437
same,glycan array binding signal (z-score),[23],-0.313
same,glycan array binding signal (z-score),[24],-1.28
same,glycan array binding signal (z-score),[25],1.4
same,glycan array binding signal (z-score),[26],-0.571
same,glycan array binding signal (z-score),[27],-0.342
same,glycan array binding signal (z-score),[28],-0.29
same,glycan array binding signal (z-score),[29],-0.58
same,glycan array binding signal (z-score),[30],-0.092

# 2 entries from above, with bars between the fields.
binder | measurement | setting | value
B1 | glycan array binding signal (z-score) | [9] | -0.568
same | glycan array binding signal (z-score) | [10] | 0.072
